What is called AC50 is the midpoint of the concentration-response curve, whichever way the signal moves.

The values below come from PubChem BioAssay AID1487 (National Center for Advancing Translational Sciences (NCATS), 2009).

A short description of the assay: qHTS Assay for Modulators of Lamin A Splicing. The following applies: HeLa LMNA splicing GFP/RFP minigene ratio, 48 h. Summed up:
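Read-out is the ratio of GFP to DsRed2 object intensity, acquired by 488 nm laser-scanning cytometry on HeLa lamin A-EGFP minigene reporter cells. Compound incubation 48 hrs at 37 °C in Opti-MEM with 2% FBS; DMSO 0.5% final.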

[1] abbreviates: measured here: GFP splicing reporter channel.
Where [2] appears, read: measured here: RFP viability control channel.

Where “and” joins values, the source holds several entries; their conditions need not be identical. Equal entries are not always repeated. The list shows a part of the results. Shown are side measurements of this screen, not its main read-out; they come without a call. The list favours compounds with an active or inconclusive main result. The note in brackets gives the kind of curve behind each potency; many fits are weak.

With `O=C(O)c1[nH]c(=O)[nH]c(=O)c1F`, the half-maximal activity concentration (AC50) under setting [1] is 35.5 µM [rising, single point].

Regarding `CSC(=Nc1ccccc1)c1c(O)n(C)c(=O)n(C)c1=O`, the half-maximal activity concentration (AC50) under setting [1] is 14.1 µM [rising, single point] and the AC50 under setting [2] was 35.5 µM [rising, single point]. Regarding `NC(=O)c1ncn(C2OC(CO)C(O)C2O)n1` (stereo not given), the AC50 under setting [2] is 14.1 µM [rising, partial curve].

Turning to `CN(C)C(Cc1ccccc1)C(=O)c1ccccc1` (stereo not given), the concentration at half-maximal activity (AC50) under setting [1] was 0.158 µM [rising, full curve, poor fit].

With `C[C@H]1CC[C@@]2(NC1)O[C@@H]1C[C@H]3[C@@H]4CC[C@@H]5C[C@@H](O)CC[C@@]5(C)[C@@H]4CC[C@]3(C)[C@@H]1[C@@H]2C`, the concentration at half-maximal activity (AC50) by setting is: under setting [1], 12.6 µM [falling, single point]; under setting [2], 14.1 µM [falling, single point].

With `CN1CCN(C2=Nc3cc(Cl)ccc3Nc3ccccc32)CC1`, the concentration at half-maximal activity (AC50) was 251 nM [rising, full curve, poor fit] and 3.55 nM [falling, full curve, poor fit] and 10 µM [falling, partial curve, poor fit] under setting [1]; 1.12 µM [rising, partial curve, poor fit] and 11.2 µM [rising, partial curve] under setting [2]. With `COc1cccc(CN2CCCCC2c2cccnc2)c1` (stereo not given), the AC50 under setting [1] was 0.224 µM [rising, full curve, poor fit]. The same measure, in the same setting: the result for `c1ccc2sc(SNC3CCCCC3)nc2c1` reads 0.398 µM [falling, partial curve, poor fit].

For the compound `Cn1c(=O)cc(OCCCC(=O)N2CCC3(CC2)OCCO3)c2ccccc21`, the concentration at half-maximal activity (AC50) under setting [2] was 5.62 µM [rising, single point]. Still for that read-out and setting: the result for `CC(C)CC(NP(=O)(O)O[C@@H]1O[C@@H](C)[C@H](O)[C@@H](O)[C@H]1O)C(=O)NC(Cc1c[nH]c2ccccc12)C(=O)O` (stereo not given in full) reads 6.31 µM [falling, single point].

Regarding `c1cc2c(c(NC3=NCCN3)c1)CCCC2`, the concentration at half-maximal activity (AC50) under setting [1] is 0.000891 µM [falling, full curve, poor fit] and the AC50 under setting [2] is 0.794 µM [falling, full curve, poor fit]. With `c1ccc2c(c1)[nH]c1cnccc12`, the AC50 under setting [1] is 0.00501 µM [falling, full curve, poor fit]. With `CCC(C)n1c(O)c(/C=N/Nc2ccccc2)c(=O)[nH]c1=S` (stereo not given), the half-maximal activity concentration (AC50) under setting [2] was 35.5 µM [rising, single point]. Consider `CCOC(=O)c1ccc(-n2c(N)c(C(=O)NCC3CCCO3)sc2=S)cc1` (stereo not given), for which the AC50 under setting [1] was 22.4 µM [rising, single point] and the AC50 under setting [2] was 12.6 µM [rising, partial curve]. As to `O=C1NC(c2cc3ccccc3nc2Cl)Nc2ccccc21` (stereo not given), the AC50 is 11.2 µM [rising, single point] under setting [1] and 11.2 µM [rising, single point] under setting [2]. With `O=C(Nc1nnc(-c2ccco2)o1)c1cccc2ccccc12`, the concentration at half-maximal activity (AC50) under setting [2] is 25.1 µM [rising, single point]. On to `O=C(NCc1ccccc1)c1cccc(Nc2nc3ccccc3n3nnnc23)c1`, for which the AC50 is, setting by setting: under setting [1], 0.1 µM [falling, full curve]; under setting [2], 2.24 µM [falling, full curve]. Turning to `O=S1(=O)N(CCN2CC=C(c3c[nH]c4cc(F)ccc34)CC2)c2cccc3c2N1CCC3`, the half-maximal activity concentration (AC50) runs as follows: under setting [1], 4.47 µM [falling, full curve, poor fit]; under setting [2], 4.47 µM [falling, full curve, poor fit]. On to `CN(C)C(=O)Oc1ccc2ccccc2c1Cl`, for which the AC50 under setting [2] is 35.5 µM [rising, single point]. In the case of `N#CC(C#N)=Cc1ccc([N+](=O)[O-])c(O)c1`, the concentration at half-maximal activity (AC50) under setting [1] was 25.1 µM [rising, single point] and the half-maximal activity concentration (AC50) under setting [2] was 35.5 µM [rising, single point]. For `O=c1cccc2n1CC1CC2CN(Cc2cccc(Cl)c2Cl)C1` (stereo not given), the AC50 under setting [2] was 11.2 µM [rising, partial curve]. As to `CN1C(=O)CCS(=O)(=O)[C@@H]1c1ccc(Cl)cc1`, under setting [1], the half-maximal activity concentration (AC50) was 0.447 µM [falling, full curve]. As for `CC(C)C(=O)Nc1ccc(S(=O)(=O)N2CC3CC(C2)c2cccc(=O)n2C3)cc1` (stereo not given), the AC50 was 0.0398 µM [falling, full curve, poor fit] under setting [1] and 0.316 µM [falling, full curve, poor fit] under setting [2]. As to `Cc1ccc2c(c1)C1CN(C)CCC1N2S(=O)(=O)c1ccccc1` (stereo not given), under setting [1], the AC50 is 5.62 µM [rising, single point].

On to `Oc1ccc(C2NCc3ccccc3-n3cccc32)cc1Cl` (stereo not given), for which the half-maximal activity concentration (AC50) under setting [2] is 11.2 µM [rising, single point]. Regarding `O=C(Nc1ccon1)c1cccn(Cc2cccc(Cl)c2)c1=O`, under setting [1], the AC50 was 1.41 µM [falling, full curve]. `CC(C)CCCC(C)C1CCC2C3CC(O)[C@@]4(O)CC(O)CC[C@@]4(C)C3CC[C@@]12C` (stereo not given in full): the AC50 is 12.6 µM [falling, partial curve] under setting [1] and 12.6 µM [falling, partial curve] under setting [2].

Regarding `CCOC(=O)C(O)(c1ccc(NC(=S)NC(=O)c2ccc(Cl)cc2Cl)c(C)c1)C(F)(F)F` (stereo not given), the concentration at half-maximal activity (AC50) was 7.94 µM [rising, partial curve] under setting [1] and 8.91 µM [rising, partial curve] under setting [2]. For `CC(=O)Nc1ccc(OC(=O)N(C)C)cc1`, the concentration at half-maximal activity (AC50) under setting [1] is 11.2 µM [rising, single point].

Take `CCn1cnc2c(Nc3cccc(Cl)c3)nc(N[C@@H]3CCCC[C@@H]3N)nc21`: the half-maximal activity concentration (AC50) by setting is: under setting [1], 3.16 µM [falling, full curve]; under setting [2], 2.82 µM [falling, full curve]. For the compound `CCOC(=O)c1cccc(NS(=O)(=O)c2ccc(NC(C)=O)cc2)c1`, the concentration at half-maximal activity (AC50) under setting [2] was 5.01 µM [rising, partial curve]. Turning to `CC[C@]1(c2cccc(O)c2)CCCCN(C)C1`, under setting [1], the AC50 is 1.26 µM [falling, single point]. Take `CC1OC(C)OC(C)O1` (stereo not given): the AC50 under setting [1] was 0.631 µM [falling, full curve, poor fit] and the AC50 under setting [2] was 10 µM [falling, partial curve]. Consider `C=CCN1C(=O)/C(=C/c2cccs2)C(=O)NC1=S`, for which the half-maximal activity concentration (AC50) under setting [1] is 2.82 µM [falling, partial curve, poor fit]. Regarding `CCn1c(O)c(/C=N/N2CCOCC2)c(=O)n(CC)c1=S`, the AC50 runs as follows: under setting [1], 35.5 µM [rising, single point]; under setting [2], 35.5 µM [rising, single point].

As for `CCCOP(=O)(OCCC)C(Nc1ccc(C(C)C)cc1)c1ccc([N+](=O)[O-])cc1` (stereo not given), the AC50 under setting [2] is 11.2 µM [rising, partial curve]. `COc1cc(-c2ccc(=O)[nH]n2)ccc1OC(F)F`: the concentration at half-maximal activity (AC50) runs as follows: under setting [1], 11.2 nM [falling, full curve] and 1.41 µM [rising, partial curve] and 891 nM [falling, full curve]; under setting [2], 35.5 nM [falling, full curve, poor fit] and 1 µM [falling, full curve] and 631 nM [falling, full curve].

In the case of `CCC(=NCCC(c1ccccc1)c1ccccc1)c1c(O)n(C)c(=O)n(C)c1=O`, under setting [2], the AC50 is 0.355 µM [rising, partial curve].

Turning to `CCCCCCCCCC[N+](C)(C)CCCCCCCCCC`, the concentration at half-maximal activity (AC50) under setting [1] was 0.00562 µM [falling, full curve, poor fit]. Turning to `c1ccc2c(CCNCc3ccc4c(c3)OCO4)c[nH]c2c1`, under setting [2], the AC50 is 10 µM [rising, partial curve, poor fit]. Still for that read-out and setting: the result for `CCOc1ccc(NC(=O)C(=S)NC2CCCCC2)cc1` reads 35.5 µM [falling, single point].

Take `O=C(c1cc2c(s1)CCCC2)N1CCC2(CC1)OCCO2`: the AC50 under setting [1] is 1.41 µM [rising, full curve, poor fit].

Turning to `COc1cc(C)c(CN2CCN(c3ccccc3)CC2)cc1C`, the AC50 under setting [2] was 12.6 µM [rising, single point]. `NCCc1c[nH]c2ccc(C(N)=O)cc12`: the concentration at half-maximal activity (AC50) is, setting by setting: under setting [1], 0.00891 µM [rising, full curve, poor fit]; under setting [2], 28.2 µM [rising, partial curve, poor fit]. Consider `CCOC(=O)c1c(-n2c(C)cc(C=C3C(=O)NC(=O)NC3=O)c2C)sc2c1CCCC2`, for which the AC50 runs as follows: under setting [1], 35.5 µM [falling, single point]; under setting [2], 31.6 µM [falling, single point]. Turning to `Nc1ccc2c3c(cccc13)CC2`, the AC50 by setting is: under setting [1], 17.8 µM [falling, partial curve, poor fit]; under setting [2], 20 µM [falling, partial curve, poor fit]. Take `C[C@@]12CCC3C(CCC4=CC(=O)CC[C@]43C)C1CCC2O` (stereo not given in full): the AC50 reads like this: under setting [1], 22.4 µM [falling, single point]; under setting [2], 10 µM [falling, partial curve]. As for `Cc1ccc(C)c(N2CCN(C(=O)CCS(=O)(=O)c3ccc4c(c3)oc(=O)n4C)CC2)c1`, under setting [2], the concentration at half-maximal activity (AC50) is 0.01 µM [falling, full curve, poor fit]. The same measure, in the same setting: the result for `O=c1oc2ccccc2c(O)c1C(c1ccc([N+](=O)[O-])cc1)c1c(O)c2ccccc2oc1=O` reads 0.316 µM [falling, partial curve, poor fit]. `CCCCCCCCC(=O)NCc1ccc(O)c(OC)c1`: under setting [1], the half-maximal activity concentration (AC50) is 5.62 µM [rising, single point]. In the case of `CC(=O)[C@@H]1CC[C@@H]2[C@@H]3CCC4=CC(=O)CC[C@@]4(C)[C@H]3CC[C@]21C`, the AC50 under setting [1] was 7.94 µM [falling, partial curve] and the AC50 under setting [2] is 6.31 µM [falling, partial curve].

As for `CC(NC(=O)Cc1cccc2ccccc12)C(=O)N1CCC(=O)CC1` (stereo not given), the AC50 under setting [2] is 20 µM [rising, partial curve, poor fit].

`Cc1cc(OC(=O)c2ccco2)c2c3c(c(=O)oc2c1)CCC3`: the concentration at half-maximal activity (AC50) was 14.1 µM [rising, single point] under setting [1] and 15.8 µM [rising, partial curve] under setting [2].
